Measured values reported in article doi:10.1101/2022.10.25.513763.
No constants are given. Whether binding was seen depends on the method and setting. In cells and extracts the contact can be indirect. A yes stands for co-enrichment or nearness to the bait. Other partners may have been found. Tags and fused reporters may be left off the sequences shown. Values belong to the binder of their own block, whether it stands above or below them.

Biological target: T1, His6-tagged Rpt3 (S. cerevisiae) (UniProt P33298)
T1 sequence: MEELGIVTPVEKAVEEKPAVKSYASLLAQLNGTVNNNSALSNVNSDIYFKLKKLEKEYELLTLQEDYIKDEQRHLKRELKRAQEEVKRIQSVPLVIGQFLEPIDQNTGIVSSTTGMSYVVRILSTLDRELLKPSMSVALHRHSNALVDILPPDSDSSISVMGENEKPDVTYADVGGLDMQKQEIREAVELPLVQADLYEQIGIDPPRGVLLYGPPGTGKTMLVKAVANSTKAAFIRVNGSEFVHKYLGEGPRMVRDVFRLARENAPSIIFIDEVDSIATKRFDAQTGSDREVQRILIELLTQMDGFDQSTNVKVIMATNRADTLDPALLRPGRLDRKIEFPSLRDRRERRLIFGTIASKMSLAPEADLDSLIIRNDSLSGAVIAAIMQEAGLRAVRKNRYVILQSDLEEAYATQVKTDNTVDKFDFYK
Assay: affinity purification with mass spectrometry

- binding: binds
B1: Rpn2 (protein, UniProt P32565 1-945)
chain: MSLTTAAPLLALLRENQDSVKTYALESINNVVDQLWSEISNELPDIEALYDDDTFSDREMAALIASKVYYNLGEYESAVKYALAAKDRFDIDEKSQFVETIVSKSIEMYVQEASKQYTKDEQFYTKDIIDPKLTSIFERMIEKCLKASELKLALGIALEGYRLDIIESALKSKLDQDSTSENVKIINYLLTLAITTVTNSKFRSSILRKSFDFLMNMPNCDYLTLNKVVVNLNDAGLALQLFKKLKEENDEGLSAQIAFDLVSSASQQLLEILVTELTAQGYDPALLNILSGLPTCDYYNTFLLNNKNIDIGLLNKSKSSLDGKFSLFHTAVSVANGFMHAGTTDNSFIKANLPWLGKAQNWAKFTATASLGVIHKGNLLEGKKVMAPYLPGSRASSRFIKGGSLYGLGLIYAGFGRDTTDYLKNIIVENSGTSGDEDVDVLLHGASLGIGLAAMGSANIEVYEALKEVLYNDSATSGEAAALGMGLCMLGTGKPEAIHDMFTYSQETQHGNITRGLAVGLALINYGRQELADDLITKMLASDESLLRYGGAFTIALAYAGTGNNSAVKRLLHVAVSDSNDDVRRAAVIALGFVLLRDYTTVPRIVQLLSKSHNAHVRCGTAFALGIACAGKGLQSAIDVLDPLTKDPVDFVRQAAMIALSMILIQQTEKLNPQVADINKNFLSVITNKHQEGLAKFGACVAQGIMNAGGRNVTIQLENADTGTLDTKSVVGLVMFSQFWYWFPLAHFLSLSFTPTTVIGIRGSDQAIPKFQMNCYAKEDAFSYPRMYEEASGKEVEKVATAVLSTTARAKARAKKTKKEKGPNEEEKKKEHEEKEKERETNKKGIKETKENDEEFYKNKYSSKPYKVDNMTRILPQQSRYISFIKDDRFVPVRKFKGNNGVVVLRDREPKEPVALIETVRQMKDVNAPLPTPFKVDDNVDFPSA

- binding: binds
B2: Rpn13 (protein, UniProt O13563 1-156)
chain: MSMSSTVIKFRAGVCEYNEDSRLCTPIPVQGEIEIKPNEEEELGFWDFEWRPTEKPVGRELDPISLILIPGETMWVPIKSSKSGRIFALVFSSNERYFFWLQEKNSGNLPLNELSAKDKEIYNKMIGVLNNSSESDEEESNDEKQKAQDVDVSMQD
